# Data published in article PMC8891561.
# Numbering of substitutions follows the chain as printed. Results are given in words; binding and its absence hold for the method and conditions named. In cells and extracts the contact can be indirect. For some of these results: Binding calls can cover weak binding; strength is not graded here. For some of these results: Where a sequence is shown, tags or fusion partners need not be part of it.
# Experiments:
# [1] = target: T1, HA-ERp44 (pcDNA3.1-HA-ERp44) (UniProt Q9BS26); assay: co-IP; exogenous; 293T cells co-transfected with VEGFA165 and ERp44 expression vectors; cells exposed to 1.2 mM DSP in PBS 30 min at RT before lysis in NP-40 buffer; anti-HA or anti-myc antibody agarose overnight at 4 C; eluted with 0.2 M glycine pH 2.5; Western blot
# T1 sequence: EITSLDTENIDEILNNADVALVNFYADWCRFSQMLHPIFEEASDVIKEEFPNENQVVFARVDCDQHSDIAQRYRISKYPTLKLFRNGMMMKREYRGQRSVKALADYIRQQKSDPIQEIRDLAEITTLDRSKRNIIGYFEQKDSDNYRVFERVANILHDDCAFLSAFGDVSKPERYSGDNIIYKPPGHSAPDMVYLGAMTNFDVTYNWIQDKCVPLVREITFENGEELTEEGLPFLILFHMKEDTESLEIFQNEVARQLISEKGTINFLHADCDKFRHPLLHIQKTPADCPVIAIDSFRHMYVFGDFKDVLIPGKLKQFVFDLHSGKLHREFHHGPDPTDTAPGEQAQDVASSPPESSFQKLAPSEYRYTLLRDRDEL
# [2] = target: T2, HA-C29S (pcDNA3.1-HA-C29S, C29S mutant of ERp44) (UniProt Q9BS26); assay: as above
# T2 sequence: T1 sequence with C29S
# [3] = target: T3, ERp44 (endogenous, mouse heart) (mouse (endogenous in heart tissue)) (UniProt Q9D1Q6); assay: co-IP; endogenous; mouse heart tissue at different stages of development lysed in NP-40 buffer (PBS, 100 mM NaCl, 10 mM NEM, 0.5% NP-40, 10 mM Tris-HCl 7.4); ERp44 antibody 5 h at 4 C, protein-A/G PLUS-agarose; Western blot
# T3 sequence: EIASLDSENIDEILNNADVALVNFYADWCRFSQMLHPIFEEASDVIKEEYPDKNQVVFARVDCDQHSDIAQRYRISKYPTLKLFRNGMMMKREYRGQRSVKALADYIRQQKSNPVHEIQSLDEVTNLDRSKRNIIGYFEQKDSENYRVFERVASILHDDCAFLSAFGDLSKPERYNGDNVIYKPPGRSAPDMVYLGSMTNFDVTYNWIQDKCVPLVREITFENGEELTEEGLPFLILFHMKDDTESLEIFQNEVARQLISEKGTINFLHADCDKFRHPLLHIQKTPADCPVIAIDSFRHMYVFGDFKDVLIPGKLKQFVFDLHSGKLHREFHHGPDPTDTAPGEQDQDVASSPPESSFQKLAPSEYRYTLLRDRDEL
binding [1],binding [2],binding [3],Substance
binds,–,–,"N101Y-myc (pcDNA4-N101Y-myc, N101Y mutant of VEGFA165) (from UniProt P15692-4)"
binds,no binding,–,VEGFA165-myc (pcDNA4-hVEGFA165-myc) (from UniProt P15692-4)
–,–,binds,"VEGFA (endogenous, mouse heart) (from UniProt Q00731-2)"
